Measurements as given in publication PMC12221982.
These are yes or no findings as the source states them, for the method shown. Some binding calls cover weakened binding; strength is not graded here.

T1: FlgL hook-filament junction protein (C. jejuni) (C. jejuni)
T1 sequence: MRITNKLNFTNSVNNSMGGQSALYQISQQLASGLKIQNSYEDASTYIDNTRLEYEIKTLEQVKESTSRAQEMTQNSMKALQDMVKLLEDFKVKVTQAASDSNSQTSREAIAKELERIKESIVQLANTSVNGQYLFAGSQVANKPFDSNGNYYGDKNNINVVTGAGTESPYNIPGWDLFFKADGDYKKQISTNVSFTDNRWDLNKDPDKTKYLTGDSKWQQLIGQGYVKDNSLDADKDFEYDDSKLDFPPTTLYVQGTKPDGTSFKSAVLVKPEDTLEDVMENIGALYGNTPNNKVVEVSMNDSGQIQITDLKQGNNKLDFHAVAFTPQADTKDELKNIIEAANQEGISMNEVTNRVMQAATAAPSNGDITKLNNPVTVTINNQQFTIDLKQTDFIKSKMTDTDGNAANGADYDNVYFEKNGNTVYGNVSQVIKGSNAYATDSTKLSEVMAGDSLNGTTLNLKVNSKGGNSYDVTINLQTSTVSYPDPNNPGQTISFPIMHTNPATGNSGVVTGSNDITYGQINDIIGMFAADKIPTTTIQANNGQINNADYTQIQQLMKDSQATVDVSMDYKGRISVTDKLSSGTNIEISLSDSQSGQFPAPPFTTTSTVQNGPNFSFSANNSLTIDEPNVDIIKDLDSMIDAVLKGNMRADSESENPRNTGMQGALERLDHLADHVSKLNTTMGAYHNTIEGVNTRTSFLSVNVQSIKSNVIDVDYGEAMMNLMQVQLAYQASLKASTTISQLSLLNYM

B1: FliD filament cap protein (C. jejuni) (protein, UniProt Q9PHW6 1-642)
chain: MAFGSLSSLGFGSGVLTQDTIDKLKEAEQKARIDPYTKKIEENTTKQKDLTEIKTKLLSFQTAVSSLADATVFAKRKVVGSISDNPPASLTVNSGVALQSMNINVTQLAQKDVYQSKGLANDGGFVNAQLNGTADLTFFSNGKEYTVTVDKNTTYRDLADKINEASGGEIVAKIVNTGEKGTPYRLTLTSKETGEDSAISFYAGKKDSNGKYQKDINAEKIFDDLGWGLDVSASIDPDKDKKGYGIKDASLHIQTAQNAEFTLDGIKMFRSSNTVTDLGVGMTLTLNKTGEINFDVQQDFEGVTKAMQDLVDAYNDLVTNLNAATDYNSETGTKGTLQGISEVNSIRSSILADLFDSQVVDGTTEDANGNKVNTKVMLSMQDFGLSLNDAGTLSFDSSKFEQKVKEDPDSTESFFSNITKYEDINHTGEVIKTGSLSKYLNSNGGNTNGLEFKPGDFTIVFNNQTYDLSKNSDGTNFKLTGKTEEELLQNLANHINSKGIEGLKVKVESYNQNNVTGFRLNFSGDGSSDFSIKGDANILKELGLSDVNITSKPIEGKGIFSKLKATLQEMTGKDGSITKYDESLTNDIKSLNTSKDSTQAMIDTRYDTMANQWLQYESILNKLNQQLNTVTNMINAANNSNN
B2: FlgK hook-filament junction protein (C. jejuni) (protein, UniProt Q0P8E9 1-608)
chain: MGIFGTLYTGVTGLKASEVQIATTGNNISNANATFYTRQRVVQTTNGYITTGGVQVGTGTAVESIVRLHDEYSYYKLKGASTQLEYTKYMASTLQEIAQRFPDLQNTGILQDLENYNKAWNDFASNPNENATKIALVKASQTLTESVNNTFATLDKIQKKVNDDIKNTVDEINRIGEEIATINKQIYGQEALPTEHANELRDRRDELELTLSKLVSAVASKNEINQDNRLDTTITDPGHQYNLSIEGFSIVDGINFHPLKLDYDDKNKSYSIYYETPDEKVRDLTAKISGGQLGAQLDLRGRNYSKSEGKYEDGIIQGYMDSLDTFAKTMINETNNLYASSAKSSVTSDYLSGLKGDIPLVNYDRTIQPGSFDIVIYDDKGDKKLTKTITIDVNTTMNDIMRQINANTDDNDNKNSNDDVDDHINASFSYDAKTGDGLFQINAKSGFKVAIEDKGTNFAGAFSIGGFFSGTDASDMKVKDSILNDPSTVRASSNGVDSGNDMANKIIQLQYKKVNFYNEDGTIDNLTMEEYYRKLTGKIASDGENNNVVNSSNETLYNSVYSEYQSKSGVNTNEELAALIQYQSSYGAAAKIVSTVDQMLDTLLGLKS

Target: T1, FlgL hook-filament junction protein (C. jejuni) (C. jejuni)
Assay: cryo-EM structure; single-particle cryo-EM of flagellar hook tips on C. jejuni ΔflhG ΔflaAB minicells (no filament); cap-HFJ map at 6.5 Å; model of 11 FlgK, 11 FlgL and 5 FliD fitted as rigid bodies and refined

Binder	binding
B1	binds
B2	binds
